Results: paper PMC2705800, “Nucleocytoplasmic Shuttling of the TACC Protein Mia1p/Alp7p Is Required for Remodeling of Microtubule Arrays during the Cell Cycle” (PLoS ONE, 2009)
Results are given in words; binding and its absence hold for the method and conditions named. Binding seen in cells or lysates may run through a third protein. Some results given as binding are weak or reduced against the parent protein; the word gives no strength. Where a sequence is shown, tags or fusion partners need not be part of it.

How the values were obtained:
MBP-Mia1p (S. pombe) [1] = molecular target: T1, MBP-Mia1p (S. pombe) (UniProt Q9URY2); assay: pull-down; MBP fusion held on amylose resin, incubated 1 hour at 4°C with soluble total lysate of Alp14p-13myc expressing mia1Δ S. pombe cells; Buffer A (20 mM Tris-HCl pH 7.4, 400 mM NaCl, 1 mM EDTA, 10 mM β-mercaptoethanol); washed 3 times; Alp14p-myc detected with anti-myc antibody, MBP proteins by Coomassie; only the target purified
T1 sequence: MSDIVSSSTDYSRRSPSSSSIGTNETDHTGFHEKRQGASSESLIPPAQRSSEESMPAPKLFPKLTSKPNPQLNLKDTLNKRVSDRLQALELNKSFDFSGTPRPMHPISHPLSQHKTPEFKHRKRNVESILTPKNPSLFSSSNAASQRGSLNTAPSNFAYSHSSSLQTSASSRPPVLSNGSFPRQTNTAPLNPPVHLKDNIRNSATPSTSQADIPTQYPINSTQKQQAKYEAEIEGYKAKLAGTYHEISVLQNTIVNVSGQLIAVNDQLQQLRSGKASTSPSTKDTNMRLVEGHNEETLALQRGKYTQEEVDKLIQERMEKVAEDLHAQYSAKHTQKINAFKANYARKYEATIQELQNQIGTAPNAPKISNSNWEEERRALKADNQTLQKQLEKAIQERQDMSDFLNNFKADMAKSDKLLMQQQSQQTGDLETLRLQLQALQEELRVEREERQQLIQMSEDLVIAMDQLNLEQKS

MBP-Mia1p (S. pombe) [2] = molecular target: T1, MBP-Mia1p (S. pombe); assay: pull-down; as a1, but the Alp14p-myc containing cellular extract was prepared from wild type cells; data not shown; only the target purified
MBP-Mia1p-MutNES4 = molecular target: T2, MBP-Mia1p-MutNES4 (S. pombe, UniProt Q9URY2 1-474, L461A (AVAAMDQANA; Leu/Ile residues 461, 463, 468 and 470) | I463A (AVAAMDQANA; …); assay: as above
T2 construct: Cloned into the pAD2a vector (MBP upstream of the multiple cloning site), as m1; also called Mia1-MutNES4; NES mutant version of Mia1p; source: E. coli BL21 (DE3) carrying the pG-KJE8 chaperone plasmid; not shown: MBP, N-terminal, kept
T2 sequence (looked up): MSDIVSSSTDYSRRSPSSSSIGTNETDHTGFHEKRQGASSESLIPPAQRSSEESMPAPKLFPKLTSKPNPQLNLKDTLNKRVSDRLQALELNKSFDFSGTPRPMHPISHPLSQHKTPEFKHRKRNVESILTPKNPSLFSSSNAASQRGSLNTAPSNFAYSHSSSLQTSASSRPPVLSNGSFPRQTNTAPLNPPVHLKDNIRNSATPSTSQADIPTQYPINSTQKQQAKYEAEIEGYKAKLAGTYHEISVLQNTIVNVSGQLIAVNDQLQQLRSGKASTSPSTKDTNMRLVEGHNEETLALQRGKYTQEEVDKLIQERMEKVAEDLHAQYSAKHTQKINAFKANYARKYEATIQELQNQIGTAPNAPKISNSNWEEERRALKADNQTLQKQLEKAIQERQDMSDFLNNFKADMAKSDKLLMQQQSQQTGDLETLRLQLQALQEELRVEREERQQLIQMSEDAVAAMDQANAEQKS

Measured: binding

B1: Alp14p-13myc (natural protein, S. pombe, UniProt O94534 1-809, looked up)
chain: MSQDQEEDYSKLPLESRIVHKVWKVRLSAYEECSKSFSLSADGSDNCFELWNNQSELWKSVLTDSNVAAQEAGTAAFVAYCRFSDPSHLLKAREISVLSISEKCLTSPRAGTRENALEALMLLVEADSAAPVIESIIPSLSARSPKVIASNVAAIASLVEQFGAKVIPSKMIIPHISNLFGHADKNVRKEASRLTVNIYRWTGDPLKDLLFKDLRPVQTKELESLFAELPTEPPKQTRFLKSQQPTSEPNVETQVEEQPALENEESEPEPSDDQFDLVEEVDVLPNVDPNLETLMASSKWKDRKEALDKLLPVLSQPKIKDNDFFNLVAILTKSVSKDANIMVVINAAHCIQAMAKGLRSNFSKYASTSINALLERSKEKKANVIESLSSAMDAVLATSSLDDLAELIASFAGNKNPQIKSSCFSLFSRSFSNMTSLPSKFTVDTCAKACVPGVSDTFEPVRSAAAEALGVLMKLVGERAINQYLSPLDDIRKSKIRSFYETATVKAKAPTKKSKVKPSKQEESKVVVPSNAKAVKKSVVPSSPVVPSPRKATNKSLSMDVSKGNAFENGPLLPRPTTRPVSRGLSRGTSSSLQQKVKASTPLNSGALNETVQNLKNMELDDPAPQPAKHSRVDRYEHPKVLEDNDSTISSLESLKRENEELREQLKVEHEENISMQKQLSELKGELNTLRSARKASPIGDRKPAFMRRANTDFLELSTSPSFQRSVREFEPTRPKLYSSIDVNQRSPLASAKTNGNFTFHAELPRSPFSSRANNINPDWTKAIDLAAKLKQKITEMKQTDQRHQGLIH
notes: Alp14p, TOG protein of Schizosaccharomyces pombe, partner of Mia1p/Alp7p; also called Alp14p-myc; Alp14p/TOG; source: S. pombe mia1Δ cells expressing Alp14p-13myc, total cell lysate
binds: MBP-Mia1p (S. pombe) [1] | MBP-Mia1p (S. pombe) [2] | MBP-Mia1p-MutNES4
